Measurements: patent US20220064275A1
Results are given in words; binding and its absence hold for the method and conditions named. Some entries that bind do so weakly or less than the wild type. One block for each binder: values may come before it.

By UniProt entry, the sequences of proteins in these tests, tags left out. Where a name states a change or a piece, a line headed by the entry shows the natural chain unless it says otherwise.
UniProt Q8CG19: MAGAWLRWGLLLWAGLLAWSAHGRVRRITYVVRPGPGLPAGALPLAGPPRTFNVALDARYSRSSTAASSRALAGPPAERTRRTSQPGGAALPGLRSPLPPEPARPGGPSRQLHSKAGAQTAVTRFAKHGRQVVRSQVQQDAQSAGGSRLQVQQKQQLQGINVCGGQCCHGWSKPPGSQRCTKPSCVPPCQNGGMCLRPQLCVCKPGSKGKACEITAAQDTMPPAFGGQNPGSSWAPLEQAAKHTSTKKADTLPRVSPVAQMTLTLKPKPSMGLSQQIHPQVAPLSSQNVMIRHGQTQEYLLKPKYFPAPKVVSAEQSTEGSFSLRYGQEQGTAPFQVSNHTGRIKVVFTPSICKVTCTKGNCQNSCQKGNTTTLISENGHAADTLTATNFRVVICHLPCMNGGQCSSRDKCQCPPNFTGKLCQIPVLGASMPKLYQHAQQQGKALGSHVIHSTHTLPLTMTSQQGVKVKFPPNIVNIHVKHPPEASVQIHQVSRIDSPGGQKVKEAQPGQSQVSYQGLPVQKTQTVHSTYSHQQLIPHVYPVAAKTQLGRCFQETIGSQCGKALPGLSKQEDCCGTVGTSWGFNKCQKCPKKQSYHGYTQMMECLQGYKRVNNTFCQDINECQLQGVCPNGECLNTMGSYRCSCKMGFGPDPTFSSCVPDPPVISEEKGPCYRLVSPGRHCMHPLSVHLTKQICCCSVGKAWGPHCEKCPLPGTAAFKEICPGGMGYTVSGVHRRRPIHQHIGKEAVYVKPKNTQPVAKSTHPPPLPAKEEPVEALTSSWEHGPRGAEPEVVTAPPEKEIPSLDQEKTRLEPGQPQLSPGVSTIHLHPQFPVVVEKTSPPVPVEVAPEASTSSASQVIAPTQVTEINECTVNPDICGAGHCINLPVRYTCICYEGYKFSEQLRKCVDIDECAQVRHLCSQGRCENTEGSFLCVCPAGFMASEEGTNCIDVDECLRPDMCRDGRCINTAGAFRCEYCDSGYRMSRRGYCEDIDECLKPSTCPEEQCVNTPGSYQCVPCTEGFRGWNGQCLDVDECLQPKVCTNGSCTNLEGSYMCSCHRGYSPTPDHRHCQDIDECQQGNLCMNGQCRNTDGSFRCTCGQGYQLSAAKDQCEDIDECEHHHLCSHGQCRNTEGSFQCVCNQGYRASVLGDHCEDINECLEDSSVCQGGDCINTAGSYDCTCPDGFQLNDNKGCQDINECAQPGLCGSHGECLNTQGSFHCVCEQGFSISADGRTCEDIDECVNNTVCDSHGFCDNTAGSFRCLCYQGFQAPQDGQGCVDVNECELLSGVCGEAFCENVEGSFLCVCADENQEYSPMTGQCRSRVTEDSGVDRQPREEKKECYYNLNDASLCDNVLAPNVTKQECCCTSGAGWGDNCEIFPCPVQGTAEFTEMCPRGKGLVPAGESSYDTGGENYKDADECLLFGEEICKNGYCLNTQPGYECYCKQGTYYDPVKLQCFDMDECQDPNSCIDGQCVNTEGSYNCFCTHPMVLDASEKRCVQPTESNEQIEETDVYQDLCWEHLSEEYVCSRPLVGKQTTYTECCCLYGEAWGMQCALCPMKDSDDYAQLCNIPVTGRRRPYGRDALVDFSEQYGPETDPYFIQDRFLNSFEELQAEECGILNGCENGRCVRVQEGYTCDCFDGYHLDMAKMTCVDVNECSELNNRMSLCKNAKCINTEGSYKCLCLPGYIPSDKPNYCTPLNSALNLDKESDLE
UniProt Q61810: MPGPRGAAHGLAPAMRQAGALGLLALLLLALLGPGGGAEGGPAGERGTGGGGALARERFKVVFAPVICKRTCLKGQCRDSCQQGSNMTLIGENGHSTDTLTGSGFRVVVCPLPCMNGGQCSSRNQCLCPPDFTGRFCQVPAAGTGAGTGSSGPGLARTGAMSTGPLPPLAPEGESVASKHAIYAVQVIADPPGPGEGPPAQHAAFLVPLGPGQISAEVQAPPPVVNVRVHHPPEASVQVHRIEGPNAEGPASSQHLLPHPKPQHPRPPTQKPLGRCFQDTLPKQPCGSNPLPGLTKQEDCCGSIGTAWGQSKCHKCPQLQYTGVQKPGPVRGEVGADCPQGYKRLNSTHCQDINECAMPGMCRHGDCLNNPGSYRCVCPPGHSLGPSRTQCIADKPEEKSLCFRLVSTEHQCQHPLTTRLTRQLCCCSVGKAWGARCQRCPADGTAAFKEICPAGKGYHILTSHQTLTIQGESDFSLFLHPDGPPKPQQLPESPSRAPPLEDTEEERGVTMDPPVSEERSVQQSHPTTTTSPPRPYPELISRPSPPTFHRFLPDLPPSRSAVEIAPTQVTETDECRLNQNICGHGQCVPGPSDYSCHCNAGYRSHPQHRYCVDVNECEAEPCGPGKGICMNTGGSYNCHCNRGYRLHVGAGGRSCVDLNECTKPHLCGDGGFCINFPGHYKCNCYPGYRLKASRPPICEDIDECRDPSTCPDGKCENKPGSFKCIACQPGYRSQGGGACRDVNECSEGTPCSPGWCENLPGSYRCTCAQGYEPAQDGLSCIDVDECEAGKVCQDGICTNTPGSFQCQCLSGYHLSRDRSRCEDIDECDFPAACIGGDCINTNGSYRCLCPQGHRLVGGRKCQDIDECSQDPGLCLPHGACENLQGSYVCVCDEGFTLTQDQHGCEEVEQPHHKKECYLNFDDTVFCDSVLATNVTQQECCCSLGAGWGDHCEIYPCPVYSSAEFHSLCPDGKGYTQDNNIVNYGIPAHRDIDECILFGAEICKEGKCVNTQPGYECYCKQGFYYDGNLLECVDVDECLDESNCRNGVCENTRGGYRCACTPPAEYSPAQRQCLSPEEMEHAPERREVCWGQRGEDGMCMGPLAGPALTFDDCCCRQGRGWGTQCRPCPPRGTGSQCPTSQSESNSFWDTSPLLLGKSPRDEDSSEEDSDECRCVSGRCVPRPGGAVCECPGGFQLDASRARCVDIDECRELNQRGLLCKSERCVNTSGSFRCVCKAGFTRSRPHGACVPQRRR
UniProt Q86YC3: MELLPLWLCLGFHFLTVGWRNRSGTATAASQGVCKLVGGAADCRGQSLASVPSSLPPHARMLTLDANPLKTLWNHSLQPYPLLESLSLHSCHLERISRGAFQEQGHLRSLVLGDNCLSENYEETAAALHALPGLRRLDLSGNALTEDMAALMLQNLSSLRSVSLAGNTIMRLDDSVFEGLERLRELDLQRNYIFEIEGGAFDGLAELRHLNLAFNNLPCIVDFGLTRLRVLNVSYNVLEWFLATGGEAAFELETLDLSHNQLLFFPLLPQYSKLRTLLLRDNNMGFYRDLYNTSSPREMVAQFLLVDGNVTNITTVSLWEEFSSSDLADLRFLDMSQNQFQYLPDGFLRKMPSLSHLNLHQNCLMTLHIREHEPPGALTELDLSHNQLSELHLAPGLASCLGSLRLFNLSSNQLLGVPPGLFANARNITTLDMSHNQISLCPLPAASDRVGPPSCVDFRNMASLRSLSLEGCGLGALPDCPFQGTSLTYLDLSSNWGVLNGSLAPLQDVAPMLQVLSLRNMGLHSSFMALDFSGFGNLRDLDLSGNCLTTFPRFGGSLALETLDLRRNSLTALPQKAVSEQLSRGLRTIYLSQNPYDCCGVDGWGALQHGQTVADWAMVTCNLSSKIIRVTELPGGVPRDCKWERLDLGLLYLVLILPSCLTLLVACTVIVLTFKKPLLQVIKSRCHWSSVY
UniProt Q00918: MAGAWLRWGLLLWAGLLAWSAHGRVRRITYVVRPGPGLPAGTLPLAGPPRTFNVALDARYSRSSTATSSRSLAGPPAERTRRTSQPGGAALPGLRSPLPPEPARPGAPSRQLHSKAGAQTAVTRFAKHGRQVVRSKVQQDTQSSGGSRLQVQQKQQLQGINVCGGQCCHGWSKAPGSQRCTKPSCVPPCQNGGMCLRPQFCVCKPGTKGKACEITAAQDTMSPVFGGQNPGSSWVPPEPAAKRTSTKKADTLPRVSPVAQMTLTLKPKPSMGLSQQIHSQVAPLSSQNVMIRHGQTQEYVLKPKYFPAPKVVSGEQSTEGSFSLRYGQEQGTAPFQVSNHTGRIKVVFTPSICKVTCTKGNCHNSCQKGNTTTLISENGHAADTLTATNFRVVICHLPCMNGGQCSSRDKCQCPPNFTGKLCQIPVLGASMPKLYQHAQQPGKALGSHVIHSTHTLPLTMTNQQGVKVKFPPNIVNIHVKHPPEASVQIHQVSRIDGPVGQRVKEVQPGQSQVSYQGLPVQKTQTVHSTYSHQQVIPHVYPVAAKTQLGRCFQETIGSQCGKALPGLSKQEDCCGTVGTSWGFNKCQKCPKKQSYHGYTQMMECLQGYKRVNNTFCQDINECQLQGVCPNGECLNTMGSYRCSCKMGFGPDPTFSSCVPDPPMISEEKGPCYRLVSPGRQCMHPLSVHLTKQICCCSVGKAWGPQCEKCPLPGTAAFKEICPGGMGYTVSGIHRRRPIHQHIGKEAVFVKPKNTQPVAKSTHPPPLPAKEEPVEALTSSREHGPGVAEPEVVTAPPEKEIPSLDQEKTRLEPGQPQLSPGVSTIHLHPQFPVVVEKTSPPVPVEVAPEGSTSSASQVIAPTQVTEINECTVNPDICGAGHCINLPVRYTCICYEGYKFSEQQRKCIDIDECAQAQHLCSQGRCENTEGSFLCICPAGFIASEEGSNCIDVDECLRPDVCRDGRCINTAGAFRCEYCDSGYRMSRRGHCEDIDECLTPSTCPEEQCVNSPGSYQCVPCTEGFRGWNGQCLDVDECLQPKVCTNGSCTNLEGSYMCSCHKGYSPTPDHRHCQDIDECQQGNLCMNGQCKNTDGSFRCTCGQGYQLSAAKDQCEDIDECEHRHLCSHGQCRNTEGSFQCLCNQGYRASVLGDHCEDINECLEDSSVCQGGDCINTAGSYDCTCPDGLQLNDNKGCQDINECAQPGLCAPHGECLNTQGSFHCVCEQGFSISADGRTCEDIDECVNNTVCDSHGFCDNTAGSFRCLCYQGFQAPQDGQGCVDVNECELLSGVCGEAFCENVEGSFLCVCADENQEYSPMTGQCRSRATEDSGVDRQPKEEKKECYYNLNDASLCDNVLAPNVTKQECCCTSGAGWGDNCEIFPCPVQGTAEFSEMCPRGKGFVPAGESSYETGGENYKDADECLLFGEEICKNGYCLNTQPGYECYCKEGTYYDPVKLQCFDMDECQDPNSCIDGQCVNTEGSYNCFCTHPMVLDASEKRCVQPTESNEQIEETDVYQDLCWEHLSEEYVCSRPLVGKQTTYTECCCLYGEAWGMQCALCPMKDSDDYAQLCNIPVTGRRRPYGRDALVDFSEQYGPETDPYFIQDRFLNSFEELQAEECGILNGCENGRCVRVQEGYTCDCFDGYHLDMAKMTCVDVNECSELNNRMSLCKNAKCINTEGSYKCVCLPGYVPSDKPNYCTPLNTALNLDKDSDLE
UniProt Q5BK65: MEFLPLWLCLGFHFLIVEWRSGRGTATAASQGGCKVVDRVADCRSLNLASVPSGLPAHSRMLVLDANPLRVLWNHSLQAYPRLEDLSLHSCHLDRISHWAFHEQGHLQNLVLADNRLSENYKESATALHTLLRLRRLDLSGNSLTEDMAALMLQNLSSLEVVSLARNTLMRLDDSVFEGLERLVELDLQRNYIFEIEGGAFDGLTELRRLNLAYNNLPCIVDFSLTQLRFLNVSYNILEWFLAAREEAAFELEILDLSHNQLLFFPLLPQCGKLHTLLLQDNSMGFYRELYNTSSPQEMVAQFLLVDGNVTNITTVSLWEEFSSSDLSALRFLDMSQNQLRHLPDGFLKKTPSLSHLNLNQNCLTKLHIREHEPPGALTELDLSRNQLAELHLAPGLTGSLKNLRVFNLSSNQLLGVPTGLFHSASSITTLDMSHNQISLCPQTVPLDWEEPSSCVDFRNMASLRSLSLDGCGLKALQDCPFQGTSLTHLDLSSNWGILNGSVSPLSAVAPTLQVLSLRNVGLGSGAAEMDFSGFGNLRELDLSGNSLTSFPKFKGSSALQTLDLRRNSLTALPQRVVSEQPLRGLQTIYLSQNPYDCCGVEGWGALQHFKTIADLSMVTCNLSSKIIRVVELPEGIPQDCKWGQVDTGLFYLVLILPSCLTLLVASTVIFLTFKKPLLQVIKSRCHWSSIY
UniProt P01137: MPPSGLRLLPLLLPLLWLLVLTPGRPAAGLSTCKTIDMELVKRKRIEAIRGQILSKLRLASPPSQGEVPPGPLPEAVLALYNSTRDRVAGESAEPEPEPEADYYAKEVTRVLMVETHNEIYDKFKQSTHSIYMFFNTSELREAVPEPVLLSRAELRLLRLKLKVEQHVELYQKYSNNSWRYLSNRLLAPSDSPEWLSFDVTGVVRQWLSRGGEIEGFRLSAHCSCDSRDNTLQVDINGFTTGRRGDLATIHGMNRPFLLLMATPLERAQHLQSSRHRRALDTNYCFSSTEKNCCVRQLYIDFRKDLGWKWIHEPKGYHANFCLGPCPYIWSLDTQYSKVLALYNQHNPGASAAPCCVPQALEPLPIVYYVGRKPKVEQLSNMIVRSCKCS

How the values were obtained:
[1] = target: murine LTBP1-proTGFβ1 complex (mouse) (UniProt Q8CG19); assay: BLI screen of human and murine LLCs
[2] = target: murine LTBP3-proTGFβ1 complex (mouse) (UniProt Q61810); assay: BLI screen of human and murine LLCs
[3] = target: hLRRC33-proTGFβ1 complex on cells (human) (UniProt Q86YC3); assay: Incucyte internalization assay on Expi293 cells expressing LRRC33-proTGFβ1
[4] = target: rat LTBP1-proTGFβ1 complex (rat) (UniProt Q00918+P17246); assay: MSD-SET
[5] = target: rat LRRC33-proTGFβ1 complex (rat) (UniProt Q5BK65+P17246); assay: MSD-SET
[6] = target: human proTGFβ1 C4S (human) (UniProt P01137); assay: HDX-MS

binding [1]: binds
binding [2]: binds
B1: Ab4 (antibody, IgG4, V domains shown)
VH: EVQLVESGGGLVQPGGSLRLSCAASGFTFSSYSMNWVRQAPGKGLEWVSYISSSSSTIYYADSVKGRFTISRDNAKNSLYLQMNSLRAEDTAVYYCARGVLDYGDMLDPWGQGTLVTVSS
VL: DIQMTQSPSSLSASVGDRVTITCQASQDITNYLNWYQQKPGKAPKLLIYDASNLETGVPSRFSGSGSGTDFTFTISSLQPEDIATYYCQQADNHPPWTFGGGTKVEIK

binding [3]: binds
binding [4]: binds
binding [5]: binds
B2: Ab6 (antibody, human IgG4 S228P, kappa, V domains shown)
VH: EVQLVESGGGLVQPGGSLRLSCTASGFTFSSFSMDWVRQAPGKGLEWVSYISPSADTIYYADSVKGRFTISRDNAKNTLYLQMNSLRAEDTAVYYCARGVLDYGDMLMPWGQGTLVTVSS
VL: DIQMTQSPSSLSASVGDRVTITCQASQDITNYLNWYQQKPGKAPKLLIYDASNLETGVPSRFSGSGSGTDFTFTISSLQPEDIATYYCQQADNHPPWTFGGGTKVEIKR

binding [6]: binds
B3: Ab5 Fab (Fab, V domains shown)
VH: EVQLVESGGGLVQPGGSLRLSCAASGFTFSSFSMDWVRQAPGKGLEWVSYISPDASTIYYADSVKGRFTISRDNAKNSLYLQMNSLRAEDTAVYYCARGVLDYGDMLDPWGQGTLVTVSS
VL: DIQMTQSPSSLSASVGDRVTITCQASQDITNYLNWYQQKPGKAPKLLIYDASNLETGVPSRFSGSGSGTDFTFTISSLQPEDIATYYCQQADNHPPWTFGGGTKVEIK
